Reference: article doi:10.1101/2025.11.30.691455
No constants are given. Whether binding was seen depends on the method and setting. Binding seen in cells or lysates may run through a third protein. Some binding calls cover weakened binding; strength is not graded here. Sequences can lack the tags named with a protein.

Amino acid sequences for entries named in this document (tags omitted). A change or cut given only in a name is not applied to a line headed by its entry.
UniProt Q13283: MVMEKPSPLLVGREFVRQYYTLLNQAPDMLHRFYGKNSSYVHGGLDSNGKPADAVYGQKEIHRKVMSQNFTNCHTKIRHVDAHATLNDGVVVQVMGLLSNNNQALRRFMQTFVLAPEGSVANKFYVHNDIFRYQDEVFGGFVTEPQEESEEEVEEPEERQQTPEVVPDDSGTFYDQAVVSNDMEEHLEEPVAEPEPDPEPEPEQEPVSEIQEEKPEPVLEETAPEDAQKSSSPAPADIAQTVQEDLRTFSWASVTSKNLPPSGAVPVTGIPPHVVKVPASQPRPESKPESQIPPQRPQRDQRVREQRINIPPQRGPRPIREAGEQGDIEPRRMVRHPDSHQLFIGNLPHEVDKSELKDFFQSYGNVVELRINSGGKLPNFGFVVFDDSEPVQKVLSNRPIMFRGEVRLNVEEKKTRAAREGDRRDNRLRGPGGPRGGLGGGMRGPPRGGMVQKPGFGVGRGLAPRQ
UniProt Q14157: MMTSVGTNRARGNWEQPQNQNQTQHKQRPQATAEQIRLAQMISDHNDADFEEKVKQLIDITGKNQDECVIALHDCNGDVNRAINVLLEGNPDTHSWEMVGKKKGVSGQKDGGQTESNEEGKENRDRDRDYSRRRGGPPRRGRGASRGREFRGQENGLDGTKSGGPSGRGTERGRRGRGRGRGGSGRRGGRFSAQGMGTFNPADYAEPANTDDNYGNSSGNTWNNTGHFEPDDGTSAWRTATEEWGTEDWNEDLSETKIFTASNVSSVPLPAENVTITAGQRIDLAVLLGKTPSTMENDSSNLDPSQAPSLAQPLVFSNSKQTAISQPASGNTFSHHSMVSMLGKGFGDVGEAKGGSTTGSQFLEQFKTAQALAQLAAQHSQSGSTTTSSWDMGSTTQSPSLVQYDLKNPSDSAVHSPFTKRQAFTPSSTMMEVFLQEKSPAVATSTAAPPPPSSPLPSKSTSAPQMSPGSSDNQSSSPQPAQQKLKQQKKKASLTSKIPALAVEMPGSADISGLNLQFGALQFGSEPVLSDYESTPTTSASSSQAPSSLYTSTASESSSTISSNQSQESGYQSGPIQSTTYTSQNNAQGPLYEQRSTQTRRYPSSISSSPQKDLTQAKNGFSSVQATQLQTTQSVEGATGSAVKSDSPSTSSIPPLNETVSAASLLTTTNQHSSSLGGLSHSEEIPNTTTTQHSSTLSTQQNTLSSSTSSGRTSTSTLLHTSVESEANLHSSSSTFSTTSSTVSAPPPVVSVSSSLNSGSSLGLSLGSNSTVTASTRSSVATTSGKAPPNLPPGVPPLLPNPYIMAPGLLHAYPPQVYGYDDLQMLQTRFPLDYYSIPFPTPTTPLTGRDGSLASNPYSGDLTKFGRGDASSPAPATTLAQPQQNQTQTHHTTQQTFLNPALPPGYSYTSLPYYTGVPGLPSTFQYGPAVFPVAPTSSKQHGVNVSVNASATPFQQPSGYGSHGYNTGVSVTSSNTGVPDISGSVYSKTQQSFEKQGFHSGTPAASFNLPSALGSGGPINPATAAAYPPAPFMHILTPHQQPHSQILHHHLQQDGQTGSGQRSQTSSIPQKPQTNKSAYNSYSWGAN

Key:
[1] = target: G3BP1 in the IP-WB of Figures S6A and S6E (human) (UniProt Q13283); experiment: co-IP
[2] = target: G3BP1 in the IP-WB of Figures S6A and S6E (human), Q13283; experiment: co-IP; conditions: remark: other sources report otherwise

UBAP2L, GFP or mCherry fusion expressed in cells (from UniProt Q14157 1-1087)
binding [1]: binds

B1: NUFIP2, GFP or mCherry fusion expressed in cells (protein, UniProt Q7Z417 1-695)
chain: MEEKPGQPQPQHHHSHHHPHHHPQQQQQQPHHHHHYYFYNHSHNHHHHHHHQQPHQYLQHGAEGSPKAQPKPLKHEQKHTLQQHQETPKKKTGYGELNGNAGEREISLKNLSSDEATNPISRVLNGNQQVVDTSLKQTVKANTFGKAGIKTKNFIQKNSMDKKNGKSYENKSGENQSVDKSDTIPIPNGVVTNNSGYITNGYMGKGADNDGSGSESGYTTPKKRKARRNSAKGCENLNIVQDKIMQQETSVPTLKQGLETFKPDYSEQKGNRVDGSKPIWKYETGPGGTSRGKPAVGDMLRKSSDSKPGVSSKKFDDRPKGKHASAVASKEDSWTLFKPPPVFPVDNSSAKIVPKISYASKVKENLNKTIQNSSVSPTSSSSSSSSTGETQTQSSSRLSQVPMSALKSVTSANFSNGPVLAGTDGNVYPPGGQPLLTTAANTLTPISSGTDSVLQDMSLTSAAVEQIKTSLFIYPSNMQTMLLSTAQVDLPSQTDQQNLGDIFQNQWGLSFINEPSAGPETVTGKSSEHKVMEVTFQGEYPATLVSQGAEIIPSGTEHPVFPKAYELEKRTSPQVLGSILKSGTTSESGALSLEPSHIGDLQKADTSSQGALVFLSKDYEIESQNPLASPTNTLLGSAKEQRYQRGLERNDSWGSFDLRAAIVYHTKEMESIWNLQKQDPKRIITYNEAMDSPDQ
binding [1]: binds

B2: ATXN2, GFP or mCherry fusion expressed in cells, Q99700 1-1313 (protein)
chain: MRSAAAAPRSPAVATESRRFAAARWPGWRSLQRPARRSGRGGGGAAPGPYPSAAPPPPGPGPPPSRQSSPPSASDCFGSNGNGGGAFRPGSRRLLGLGGPPRPFVVLLLPLASPGAPPAAPTRASPLGARASPPRSGVSLARPAPGCPRPACEPVYGPLTMSLKPQQQQQQQQQQQQQQQQQQQQQQQPPPAAANVRKPGGSGLLASPAAAPSPSSSSVSSSSATAPSSVVAATSGGGRPGLGRGRNSNKGLPQSTISFDGIYANMRMVHILTSVVGSKCEVQVKNGGIYEGVFKTYSPKCDLVLDAAHEKSTESSSGPKREEIMESILFKCSDFVVVQFKDMDSSYAKRDAFTDSAISAKVNGEHKEKDLEPWDAGELTANEELEALENDVSNGWDPNDMFRYNEENYGVVSTYDSSLSSYTVPLERDNSEEFLKREARANQLAEEIESSAQYKARVALENDDRSEEEKYTAVQRNSSEREGHSINTRENKYIPPGQRNREVISWGSGRQNSPRMGQPGSGSMPSRSTSHTSDFNPNSGSDQRVVNGGVPWPSPCPSPSSRPPSRYQSGPNSLPPRAATPTRPPSRPPSRPSRPPSHPSAHGSPAPVSTMPKRMSSEGPPRMSPKAQRHPRNHRVSAGRGSISSGLEFVSHNPPSEAATPPVARTSPSGGTWSSVVSGVPRLSPKTHRPRSPRQNSIGNTPSGPVLASPQAGIIPTEAVAMPIPAASPTPASPASNRAVTPSSEAKDSRLQDQRQNSPAGNKENIKPNETSPSFSKAENKGISPVVSEHRKQIDDLKKFKNDFRLQPSSTSESMDQLLNKNREGEKSRDLIKDKIEPSAKDSFIENSSSNCTSGSSKPNSPSISPSILSNTEHKRGPEVTSQGVQTSSPACKQEKDDKEEKKDAAEQVRKSTLNPNAKEFNPRSFSQPKPSTTPTSPRPQAQPSPSMVGHQQPTPVYTQPVCFAPNMMYPVPVSPGVQPLYPIPMTPMPVNQAKTYRAVPNMPQQRQDQHHQSAMMHPASAAGPPIAATPPAYSTQYVAYSPQQFPNQPLVQHVPHYQSQHPHVYSPVIQGNARMMAPPTHAQPGLVSSSATQYGAHEQTHAMYACPKLPYNKETSPSFYFAISTGSLAQQYAHPNATLHPHTPHPQPSATPTGQQQSQHGGSHPAPSPVQHHQHQAAQALHLASPQQQSAIYHAGLAPTPPSMTPASNTQSPQNSFPAAQQTVFTIHPSHVQPAYTNPPHMAHVPQAHVQSGMVPSHPTAHAPMMLMTTQPPGGPQAALAQSALQPIPVSTTAHFPYMTHPSVQAHHQQQL
binding [2]: no binding
